In the assay the target is T1, Smc4-L1333V-L1335A, 3xStrepTagII-tagged (S. cerevisiae) (UniProt Q12267).
T1 sequence: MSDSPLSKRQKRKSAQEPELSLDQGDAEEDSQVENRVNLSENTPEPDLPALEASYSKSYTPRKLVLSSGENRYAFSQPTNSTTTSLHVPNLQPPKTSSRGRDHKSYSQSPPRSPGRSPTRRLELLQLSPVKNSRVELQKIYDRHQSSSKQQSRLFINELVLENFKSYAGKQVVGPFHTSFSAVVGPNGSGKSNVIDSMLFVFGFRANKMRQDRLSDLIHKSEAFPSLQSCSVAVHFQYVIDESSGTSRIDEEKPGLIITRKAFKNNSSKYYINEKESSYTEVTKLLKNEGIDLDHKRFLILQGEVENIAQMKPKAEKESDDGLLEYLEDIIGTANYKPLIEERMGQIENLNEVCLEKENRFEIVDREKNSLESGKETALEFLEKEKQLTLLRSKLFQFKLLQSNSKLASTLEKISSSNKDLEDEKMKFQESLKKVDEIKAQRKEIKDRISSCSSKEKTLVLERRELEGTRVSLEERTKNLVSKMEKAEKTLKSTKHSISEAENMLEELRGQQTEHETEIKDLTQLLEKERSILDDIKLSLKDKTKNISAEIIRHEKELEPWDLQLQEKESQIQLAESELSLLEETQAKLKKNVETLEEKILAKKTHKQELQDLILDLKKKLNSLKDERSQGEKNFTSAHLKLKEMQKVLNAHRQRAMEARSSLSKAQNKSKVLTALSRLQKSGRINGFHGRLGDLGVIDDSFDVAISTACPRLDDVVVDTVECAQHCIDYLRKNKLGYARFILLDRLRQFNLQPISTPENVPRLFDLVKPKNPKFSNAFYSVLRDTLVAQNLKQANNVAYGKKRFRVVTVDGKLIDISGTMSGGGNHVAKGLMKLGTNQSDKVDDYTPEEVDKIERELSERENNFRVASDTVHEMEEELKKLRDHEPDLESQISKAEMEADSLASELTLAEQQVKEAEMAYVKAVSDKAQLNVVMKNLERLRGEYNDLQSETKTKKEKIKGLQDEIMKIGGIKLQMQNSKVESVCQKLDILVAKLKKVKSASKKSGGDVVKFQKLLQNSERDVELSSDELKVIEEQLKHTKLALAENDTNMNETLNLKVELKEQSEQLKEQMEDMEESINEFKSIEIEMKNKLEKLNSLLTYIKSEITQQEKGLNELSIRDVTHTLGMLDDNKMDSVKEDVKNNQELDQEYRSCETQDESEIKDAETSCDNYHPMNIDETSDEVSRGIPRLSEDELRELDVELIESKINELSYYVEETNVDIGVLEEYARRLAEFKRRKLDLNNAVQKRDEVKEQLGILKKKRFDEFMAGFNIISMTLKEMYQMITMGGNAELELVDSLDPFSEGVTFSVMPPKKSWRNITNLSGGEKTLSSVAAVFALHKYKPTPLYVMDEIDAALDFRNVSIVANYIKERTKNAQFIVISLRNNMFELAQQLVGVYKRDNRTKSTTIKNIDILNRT
Description: tandem affinity co-purification (Ni-NTA, Strep-Trap) + SEC; five condensin subunits co-overexpressed in yeast; extract in 500 mM NaCl, 10 mM Tris-HCl pH 8.0, 10% glycerol; Ni-NTA (His tags on Brn1 and Ycg1), then Strep-Trap HP (3xStrepTagII on Smc4), then Superose 6 10/300 in 200 mM NaCl, 50 mM Tris-HCl pH 8.0; subunits seen by SDS-PAGE and Coomassie staining.

Results on four molecules are retold here after paper PMC6039025.

Results are given in words; binding and its absence hold for the method and conditions named. Some results given as binding are weak or reduced against the parent protein; the word gives no strength. Where a sequence is shown, tags or fusion partners need not be part of it.

B1: Ycs4 (protein, UniProt Q06156 1-1176)
chain: MSGFSLSEYLTKFQTTDRESYPRLQDPSRELNVIIDQLAVSPEQIDASPDSLEALIDLCHDFPHLTPKLQTQLSYLISSSLSNLSKDIKANLSSNVNFTEIGGLIPQWKRHLEEYGYLIQVLLTFLQDELHKVSSQSTNLNRSAKNSKNDSANVELFKRDCNQMENLLESITKLLEINLSKIFQTTPEKDLFIGLFTRPLFVLLEIEPVTKVSSLKMFIQRILAMCVKNHGQSSSIQSSLMTNLTYFLHLSVFNAELLKLLNDEYNYPQLTEDILKEISTRVFNAKDTTGPKAISNFLIKLSELSPGIMLRQMNLVITLLNNSSITLRCSVVEACGNIVAELAQDPQTMEHYKQQIAVLIELLEERFQDSNPYVRTKAIQGCSKICDLSSKFNKSKAKFTSLAVRSLQDRSSLVRRNSVKLLSKLLLKHPFKAIHGSQLRLSEWEEYLKGSESQLNSTLKKVESQETLNDTIERSLIEEEVEQDEGQCRTELEGSFNKSAELSRIENEVENINATNTSVLMKLKLMIVYYKDAISFIKEIHKSIELISNLLFSKNRNEVLESMDFLVLADAFDIELSEFGIKKMLHLVWMKGTNDEGTSISVHLIECYKQLFLTAPDSCNMQEKAAHIAKNLINLSIGASIADLASLEQLLGMMYEQKLIDQHVINILWAIYNSASKASMQKEQNVNNRDSEKGFSKEQIHGSIIILGMLSLADNEIALKGLESLLNIGLGAVGLKDLTLCRYSCLALERMVPKRSTIITKAINQELEDVAVKKLYAIIINYTKDNEYYPMCEQALSALFTISSKPDILATDLIREKTMMTFGKPEEEDSILSLEQSSRVVSLSQLLFIVGQVAIKTLVYLEKCEAEFKKRKIEAETRNGKVKNQGADVTNTTQDNGGDKELEMIGGTNEDDFTDAIQFVKENELLFGEKSILGKFCPIVEEIVSNSSRFSDPMLQRTATLCLEKLMCLSSKYCEKSLPLLITVMEKSPDPTIRSNAVLGLGDMAVCFNNLVDENTDYLYRRLHDENLMVQRTCLMTVTFLILAGQVKVKGQLGEMAKCLDNPDQGISDMCRLFFTELASKDNAIYNGFIDIFSNLSSDDLLGKESFKKIIKFLLTFIDKERHQKQLNEKLVGRLRKCETQKQWDDIAFVLNNLPYKNEDVTALLEQGFKVVSAKE
For B1, the binding result is listed as “binds”.

B2: Brn1-3xHA-12xHIS (protein, UniProt P38170 1-754)
chain: MTTQLRYENNDDDERVEYNLFTNRSTMMANFEEWIKMATDNKINSRNSWNFALIDYFYDLDVLKDGENNINFQKASATLDGCIKIYSSRVDSVTTETGKLLSGLAQRKTNGASNGDDSNGGNGEGLGGDSDEANIEIDPLTGMPISNDPDVNNTRRRVYNRVLETTLVEFETIKMKELDQELIIDPLFKKALVDFDEGGAKSLLLNTLNIDNTARVIFDASIKDTQNVGQGKLQRKEEELIERDSLVDDENEPSQSLISTRNDSTVNDSVISAPSMEDEILSLGMDFIKFDQIAVCEISGSIEQLRNVVEDINQAKDFIENVNNRFDNFLTEEELQAAVPDNAEDDSDGFDMGMQQELCYPDENHDNTSHDEQDDDNVNSTTGSIFEKDLMAYFDENLNRNWRGREHWKVRNFKKANLVNKESDLLEETRTTIGDTTDKNTTDDKSMDTKKKHKQKKVLEIDFFKTDDSFEDKVFASKGRTKIDMPIKNRKNDTHYLLPDDFHFSTDRITRLFIKPGQKMSLFSHRKHTRGDVSSGLFEKSTVSANHSNNDIPTIADEHFWADNYERKEQEEKEKEQSKEVGDVVGGALDNPFEDDMDGVDFNQAFEGTDDNEEASVKLDLQDDEDHKFPIRENKVTYSRVSKKVDVRRLKKNVWRSINNLIQEHDSRKNREQSSNDSETHTEDESTKELKFSDIIQGISKMYSDDTLKDISTSFCFICLLHLANEHGLQITHTENYNDLIVNYEDLATTQAAS
As to B2, the binding result is “binds”.

B3: Ycg1-3xFLAG-9xHIS (protein, UniProt Q06680 1-1035)
chain: MQDPDGIDINTKIFNSVAEVFQKAQGSYAGHRKHIAVLKKIQSKAVEQGYEDAFNFWFDKLVTKILPLKKNEIIGDRIVKLVAAFIASLERELILAKKQNYKLTNDEEGIFSRFVDQFIRHVLRGVESPDKNVRFRVLQLLAVIMDNIGEIDESLFNLLILSLNKRIYDREPTVRIQAVFCLTKFQDEEQTEHLTELSDNEENFEATRTLVASIQNDPSAEVRRAAMLNLINDNNTRPYILERARDVNIVNRRLVYSRILKSMGRKCFDDIEPHIFDQLIEWGLEDRELSVRNACKRLIAHDWLNALDGDLIELLEKLDVSRSSVCVKAIEALFQSRPDILSKIKFPESIWKDFTVEIAFLFRAIYLYCLDNNITEMLEENFPEASKLSEHLNHYILLRYHHNDISNDSQSHFDYNTLEFIIEQLSIAAERYDYSDEVGRRSMLTVVRNMLALTTLSEPLIKIGIRVMKSLSINEKDFVTMAIEIINDIRDDDIEKQEQEEKIKSKKINRRNETSVDEEDENGTHNDEVNEDEEDDNISSFHSAVENLVQGNGNVSESDIINNLPPEKEASSATIVLCLTRSSYMLELVNTPLTENILIASLMDTLITPAVRNTAPNIRELGVKNLGLCCLLDVKLAIDNMYILGMCVSKGNASLKYIALQVIVDIFSVHGNTVVDGEGKVDSISLHKIFYKVLKNNGLPECQVIAAEGLCKLFLADVFTDDDLFETLVLSYFSPINSSNEALVQAFAFCIPVYCFSHPAHQQRMSRTAADILLRLCVLWDDLQSSVIPEVDREAMLKPNIIFQQLLFWTDPRNLVNQTGSTKKDTVQLTFLIDVLKIYAQIEKKEIKKMIITNINAIFLSSEQDYSTLKELLEYSDDIAENDNLDNVSKNALDKLRNNLNSLIEEINERSETQTKDENNTANDQYSSILGNSFNKSSNDTIEHAADITDGNNTELTKTTVNISAVDNTTEQSNSRKRTRSEAEQIDTSKNLENMSIQDTSTVAKNVSFVLPDEKSDAMSIDEEDKDSESFSEVC
B3: the binding result was “binds”.

B4: Smc2 (protein, UniProt P38989 1-1170)
chain: MKVEELIIDGFKSYATRTVITDWDPQFNAITGLNGSGKSNILDAICFVLGIASMSTVRASSLQDLIYKRGQAGVTKASVTIVFDNTDKSNSPIGFTNSPQISVTRQVVLGGTSKYLINGHRAPQQSVLQLFQSVQLNINNPNFLIMQGKITKVLNMKPSEILSLIEEAAGTKMFEDRREKAERTMSKKETKLQENRTLLTEEIEPKLEKLRNEKRMFLEFQSTQTDLEKTERIVVSYEYYNIKHKHTSIRETLENGETRMKMLNEFVKKTSEEIDSLNEDVEEIKLQKEKELHKEGTISKLENKENGLLNEISRLKTSLSIKVENLNDTTEKSKALESEIASSSAKLIEKKSAYANTEKDYKMVQEQLSKQRDLYKRKEELVSTLTTGISSTGAADGGYNAQLAKAKTELNEVSLAIKKSSMKMELLKKELLTIEPKLKEATKDNELNVKHVKQCQETCDKLRARLVEYGFDPSRIKDLKQREDKLKSHYYQTCKNSEYLKRRVTNLEFNYTKPYPNFEASFVHGVVGQLFQIDNDNIRYATALQTCAGGRLFNVVVQDSQTATQLLERGRLRKRVTIIPLDKIYTRPISSQVLDLAKKIAPGKVELAINLIRFDESITKAMEFIFGNSLICEDPETAKKITFHPKIRARSITLQGDVYDPEGTLSGGSRNTSESLLVDIQKYNQIQKQIETIQADLNHVTEELQTQYATSQKTKTIQSDLNLSLHKLDLAKRNLDANPSSQIIARNEEILRDIGECENEIKTKQMSLKKCQEEVSTIEKDMKEYDSDKGSKLNELKKELKLLAKELEEQESESERKYDLFQNLELETEQLSSELDSNKTLLHNHLKSIESLKLENSDLEGKIRGVEDDLVTVQTELNEEKKRLMDIDDELNELETLIKKKQDEKKSSELELQKLVHDLNKYKSNTNNMEKIIEDLRQKHEFLEDFDLVRNIVKQNEGIDLDTYRERSKQLNEKFQELRKKVNPNIMNMIENVEKKEAALKTMIKTIEKDKMKIQETISKLNEYKRETLVKTWEKVTLDFGNIFADLLPNSFAKLVPCEGKDVTQGLEVKVKLGNIWKESLIELSGGQRSLIALSLIMALLQFRPAPMYILDEVDAALDLSHTQNIGHLIKTRFKGSQFIVVSLKEGMFANANRVFRTRFQDGTSVVSIM
Take B4: the binding entry is “binds”.
